Reference: PMC3128097
No constants are given. Whether binding was seen depends on the method and setting. Binding can be weak; no strength is given.

Key:
Test in all cases: two-hybrid; directed yeast two-hybrid, ProQuest Two-Hybrid System (vectors pDEST22 and pDEST32), full length coding regions; X-Gal assay on nitrocellulose membranes with yeast colonies
[1] = target: T1, Arabidopsis NF-YC3 (Arabidopsis thaliana) (UniProt Q9ZVL3)
T1 sequence: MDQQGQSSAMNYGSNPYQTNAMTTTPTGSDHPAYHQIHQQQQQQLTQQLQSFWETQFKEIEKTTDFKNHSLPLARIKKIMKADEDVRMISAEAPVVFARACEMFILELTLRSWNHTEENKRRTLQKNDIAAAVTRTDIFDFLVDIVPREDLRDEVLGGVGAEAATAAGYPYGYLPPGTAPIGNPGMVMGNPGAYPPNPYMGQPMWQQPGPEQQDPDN

[2] = target: T2, Arabidopsis NF-YC4 (Arabidopsis thaliana) (UniProt Q9FMV5)
T2 sequence: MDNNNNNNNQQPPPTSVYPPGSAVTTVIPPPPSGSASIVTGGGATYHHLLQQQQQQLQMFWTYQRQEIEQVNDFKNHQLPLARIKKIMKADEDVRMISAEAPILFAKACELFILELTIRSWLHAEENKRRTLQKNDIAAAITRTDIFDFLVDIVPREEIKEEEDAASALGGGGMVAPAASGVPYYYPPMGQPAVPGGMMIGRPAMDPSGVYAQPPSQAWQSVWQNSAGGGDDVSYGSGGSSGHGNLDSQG

[3] = target: T3, Arabidopsis NF-YC9 (Arabidopsis thaliana) (UniProt Q8L4B2)
T3 sequence: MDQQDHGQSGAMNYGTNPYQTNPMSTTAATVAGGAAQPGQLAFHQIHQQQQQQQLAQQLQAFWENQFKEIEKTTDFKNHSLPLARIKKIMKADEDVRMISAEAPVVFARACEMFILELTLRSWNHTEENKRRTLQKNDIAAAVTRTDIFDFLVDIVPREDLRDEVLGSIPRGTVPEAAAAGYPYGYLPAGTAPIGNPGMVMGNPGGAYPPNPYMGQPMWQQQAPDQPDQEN

Measured: binding

BdNF-YB3 (Brachypodium distachyon NF-YB3, Bradi1g43470)
binds: all assays above

BdNF-YB6 (Brachypodium distachyon NF-YB6, Bradi1g60030)
binds: all assays above
